The other results are listed elsewhere or left out. Many values rest on one well or one pass, so single values are uncertain.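 The apoptosis fraction was the count of cleaved-PARP antibody-stained nuclei relative to all DNA-stained nuclei, imaged in 1,536-well plates. Screening doses were set so most cells survived, and baseline and induced cleaved-PARP levels vary greatly across cell lines.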
The compounds below were run on IPC-298 (assay: cleaved PARP positive nuclei fraction relative to DMSO control; melanoma cells; higher = more apoptosis). Settings: library dose: low library concentration; 72 h.

| Structure (SMILES) | cleaved PARP positive nuclei fraction |
| --- | --- |
| COc1cc([C@@H]2c3cc4c(cc3[C@@H](O[C@@H]3O[C@@H]5CO[C@@H](C)O[C@H]5[C@H](O)[C@H]3O)[C@H]3COC(=O)[C@H]23)OCO4)cc(OC)c1O [etoposide] + CN(NC(=O)CC(=O)NN(C)C(=S)c1ccccc1)C(=S)c1ccccc1 [STA4783] (first compound 0.02 µM, partner dose 0.006 µM) | 99.5% |
| O=C(Nc1cc(C(F)(F)F)cc(C(F)(F)F)c1)c1cc(Cl)ccc1O + O=C(Nc1cccc(Cl)c1)Nc1ncc(CCNc2ncnc3ccsc23)s1 [SNS314] (first compound 0.016 µM, partner dose 0.0008 µM) | 158% |
| Cc1cn(-c2cc(NC(=O)c3ccc(C)c(Nc4nccc(-c5cccnc5)n4)c3)cc(C(F)(F)F)c2)cn1 [nilotinib] + NC(=O)Nc1cc(-c2cccc(F)c2)sc1C(=O)N[C@H]1CCCNC1 [AZD7762] (first compound 0.2 µM, partner dose 0.02 µM) | 44.1% |
| Cc1cn(-c2cc(NC(=O)c3ccc(C)c(Nc4nccc(-c5cccnc5)n4)c3)cc(C(F)(F)F)c2)cn1 [nilotinib] + O=C(O)c1ccc(-c2c[nH]c3ncc(-c4ccccc4)cc23)cc1C1CCCC1 [GSK650394] (first compound 0.2 µM, partner dose 0.16 µM) | 88.3% |
| O=C(/C=C/c1cccnc1)NCCCCC1CCN(C(=O)c2ccccc2)CC1 + CC(C)(C)c1cnc(CSc2cnc(NC(=O)C3CCNCC3)s2)o1 [SNS-032] (first compound 0.01 µM, partner dose 0.01 µM) | 437% |
| Cc1cn(-c2cc(NC(=O)c3ccc(C)c(Nc4nccc(-c5cccnc5)n4)c3)cc(C(F)(F)F)c2)cn1 [nilotinib] + O=C(CCCCCCC(=O)Nc1ccccc1)NO [vorinostat] (first compound 0.2 µM, partner dose 0.08 µM) | 87.6% |
| N#CC[C@H](C1CCCC1)n1cc(-c2ncnc3[nH]ccc23)cn1 [ruxolitinib] + O=C(O)c1ccc(-c2c[nH]c3ncc(-c4ccccc4)cc23)cc1C1CCCC1 [GSK650394] (first compound 1 µM, partner dose 0.16 µM) | 172% |
| O=C(Nc1cc(C(F)(F)F)cc(C(F)(F)F)c1)c1cc(Cl)ccc1O + CO[C@@H]1[C@H](N(C)C(=O)c2ccccc2)C[C@H]2O[C@]1(C)n1c3ccccc3c3c4c(c5c6ccccc6n2c5c31)C(=O)NC4 [Midostaurin] (first compound 0.016 µM, partner dose 0.08 µM) | 47.3% |
| N#CC[C@H](C1CCCC1)n1cc(-c2ncnc3[nH]ccc23)cn1 [ruxolitinib] + Cc1ccc(NC(=O)c2cccc(N(C)C)c2)cc1NC(=O)c1ccc(O)cc1 [ZM336372] (first compound 1 µM, partner dose 2 µM) | 105% |
| N#CC[C@H](C1CCCC1)n1cc(-c2ncnc3[nH]ccc23)cn1 [ruxolitinib] + CC1(C)NC(=O)N(c2ccc([N+](=O)[O-])c(C(F)(F)F)c2)C1=O [nilutamide] (first compound 1 µM, partner dose 1 µM) | 92.6% |
| CC[C@]1(O)C[C@H]2CN(CCc3c([nH]c4ccccc34)[C@@](C(=O)OC)(c3cc4c(cc3OC)N(C=O)[C@H]3[C@@](O)(C(=O)OC)[C@H](OC(C)=O)[C@]5(CC)C=CCN6CC[C@]43[C@@H]65)C2)C1 [vincristine] + O=C(Nc1cccc(Cl)c1)Nc1ncc(CCNc2ncnc3ccsc23)s1 [SNS314] (first compound 0.0001 µM, partner dose 0.0008 µM) | 46.7% |
| Cc1cn(-c2cc(NC(=O)c3ccc(C)c(Nc4nccc(-c5cccnc5)n4)c3)cc(C(F)(F)F)c2)cn1 [nilotinib] + CC(C)(C)c1cnc(CSc2cnc(NC(=O)C3CCNCC3)s2)o1 [SNS-032] (first compound 0.2 µM, partner dose 0.01 µM) | 88.1% |
| COc1cc([C@@H]2c3cc4c(cc3[C@@H](O[C@@H]3O[C@@H]5CO[C@@H](C)O[C@H]5[C@H](O)[C@H]3O)[C@H]3COC(=O)[C@H]23)OCO4)cc(OC)c1O [etoposide] + NC(=O)Nc1cc(-c2cccc(F)c2)sc1C(=O)N[C@H]1CCCNC1 [AZD7762] (first compound 0.02 µM, partner dose 0.02 µM) | 88.3% |

Two entries picked at random from those above, as already listed:

| Structure (SMILES) | cleaved PARP positive nuclei fraction |
| --- | --- |
| O=C(/C=C/c1cccnc1)NCCCCC1CCN(C(=O)c2ccccc2)CC1 + CC(C)(C)c1cnc(CSc2cnc(NC(=O)C3CCNCC3)s2)o1 [SNS-032] (first compound 0.01 µM, partner dose 0.01 µM) | 437% |
| Cc1cn(-c2cc(NC(=O)c3ccc(C)c(Nc4nccc(-c5cccnc5)n4)c3)cc(C(F)(F)F)c2)cn1 [nilotinib] + O=C(O)c1ccc(-c2c[nH]c3ncc(-c4ccccc4)cc23)cc1C1CCCC1 [GSK650394] (first compound 0.2 µM, partner dose 0.16 µM) | 88.3% |

— the supplement of paper PMC4604168 (melanoma cell lines)
